Data: patent US20120065123A1, “Synthetic Antibodies” (priority 2009, published 2012)
No constants are given. Whether binding was seen depends on the method and setting.

Biological target: transferrin
Assay: SPR, proteins on the same chip

binding: no binding
B1: TNF1 lead peptide (peptide)
peptide: FERDPLMMPWSFLQSRQGSC
